In the experiment the target is human 4-1BB expressed on CHO-K1 cells (CHO-K1/h4-1BB) (human) (UniProt Q07011). As to the kind of experiment: flow cytometry on cells; indirect flow cytometry; 2.5 x10^5 stable CHO-K1 cells expressing the human receptor treated with 0, 0.2, 1, 5, 10 μg/mL purified Fc fusion protein, 45 min at 4°C; detected with FITC mouse anti-human IgG; only the binder purified.

Sequences of proteins named here, by UniProt entry; tags and fusion partners are left off. Residues count along the entry.
UniProt Q07011, residues 24-255: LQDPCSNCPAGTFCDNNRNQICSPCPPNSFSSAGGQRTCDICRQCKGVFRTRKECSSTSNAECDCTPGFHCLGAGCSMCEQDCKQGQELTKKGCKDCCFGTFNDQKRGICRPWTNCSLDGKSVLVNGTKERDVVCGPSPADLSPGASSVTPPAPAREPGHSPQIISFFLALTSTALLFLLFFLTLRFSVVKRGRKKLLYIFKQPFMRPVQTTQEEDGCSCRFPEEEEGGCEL
UniProt P41273, residues 50-254: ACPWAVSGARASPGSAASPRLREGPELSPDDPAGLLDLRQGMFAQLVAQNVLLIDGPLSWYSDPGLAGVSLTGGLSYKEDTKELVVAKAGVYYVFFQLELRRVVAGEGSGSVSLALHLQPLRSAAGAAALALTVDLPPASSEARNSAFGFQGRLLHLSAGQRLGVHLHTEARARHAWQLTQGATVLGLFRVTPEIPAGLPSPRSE

No constants are given. Whether binding was seen depends on the method and setting. Some entries that bind do so weakly or less than the wild type.

“4-1BBL extracellular domain (ECD)-Fc fusion protein (from UniProt P41273 50-254)”: the binding entry is “binds”.
